Patent US20260265690A1, “Epithelial Stem Cells and Production and Uses thereof” (Stemson Therapeutics Corp., priority 2022, published 2026)
At least one compound was matched to its structure with a doubt left.

Tested on: hiPSCs
Test: Bulk RNASeq of marker expression during hiPSC differentiation
Assay type: cell-based, human
Settings: hiPSCs in response to RA treatment during differentiation

**Q.** `CC1=C(/C=C/C(C)=C/C=C/C(C)=C/C(=O)O)C(C)(C)CCC1` [RA, retinoic acid] was tested. Which “expression of CD200 and other pluripotency markers NANOG, OCT3/4, TERT” value did it give?
**A.** Its value is “significantly downregulated”.
